The campaign covered roughly 340,000 compounds. About 6,200 (1.8%) were called active. Inconclusive means that the source gave no clear call. Such entries were picked first, then a sample of the others. Calls follow the shape of the dose curve; as a rule, active = well fitted activation curve with a large enough effect; inconclusive = small, poorly fitted or top-dose-only effect; inactive = no such curve, though single readings can be large or run the other way. A potency beside an inconclusive call is a rough fit, not a confirmed value.
Assay: A quantitative high throughput screen for small molecules that induce DNA re-replication in SW480 colon adenocarcinoma cells. Also: nearly all actives have a fitted effect of over 55% in size. As to re-replication activation: % of control where 0% means no effect.
Settings: Hoechst DNA content imaging, 48 h; re-replication activation: at 46.1 µM (top of the series) unless noted
In short: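 Per well, 250 cells were exposed to pinned compound for 48 hr. Nuclear DNA was visualised with Hoechst (40 min, 37 C) and total object intensity recorded by fluorescence scanning.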
Potency is read from the fitted curve at half-maximal effect.

SMILES | Potency | re-replication activation
CCCC1=[N+](CC(=O)c2ccc(C)cc2)CCn2cccc21 | inconclusive: 1.3 µM [activator, partial curve, poor fit] | –
O=C1OC[C@H](Cc2ccc3c(c2)OCO3)/C1=C\c1ccc2c(c1)OCO2 | – | inactive: 1.11%
CCc1cc(C(=O)N2CCc3c([nH]c4ccccc34)C2c2ccc(OC)cc2F)no1 (stereo not drawn) | inconclusive: 29.1 µM [activator, single point] | –
FC(F)(F)c1ccc(N/N=C/c2cccnc2)nc1 | inconclusive: 29.1 µM [activator, single point] | –
COc1ccc(OC)c(CN2CCCC(CCC(=O)N(C)CCc3ccccn3)C2)c1 (stereo not drawn) | inconclusive: 0.291 µM [activator, partial curve] | –
C#C[C@]1(O)CC[C@H]2[C@@H]3CCC4=CC(=O)CC[C@@H]4[C@H]3CC[C@@]21CC | inconclusive: 29.1 µM [activator, partial curve, poor fit] | –
Cc1cccc(N2CCN(C(=O)c3cccc(N4CCCC4=O)c3)C(C)C2)c1 (stereo not drawn) | – | inconclusive: -2.22% [activator]
CCC(C)(C)NC(=O)C(c1ccccc1F)N(Cc1ccco1)C(=O)c1csnn1 (stereo not drawn) | – | inactive: 1.34%
COc1ccc(C(=O)Nc2ccc(N3CCN(C(=O)c4cccs4)CC3)cc2)cc1Br | inconclusive: 29.1 µM [activator, single point] | –
N#Cc1c(N)n(-c2cccc(C(=O)O)c2)c2nc3ccccc3nc12 | inconclusive: 20.6 µM [activator, single point] | –
COc1ccc(NS(=O)(=O)c2ccc3oc(SC4CCOC4=O)nc3c2)cc1 (stereo not drawn) | inconclusive: 20.6 µM [activator, single point] | –
Cc1ccc(C(=O)N/C(=C/c2ccc(-c3cccc([N+](=O)[O-])c3)o2)C(=O)NCCCN(C)C)cc1 | inconclusive: 23.1 µM [activator, single point] | –
COc1ccccc1NS(=O)(=O)c1cc(C(=O)NCC(c2cccs2)N2CCOCC2)ccc1C (stereo not drawn) | – | inactive: -4.83%
Cc1ccccc1N(C(=O)c1snc(C(N)=O)c1N)C(C)C(=O)NC1CCCCC1 (stereo not drawn) | – | inactive: -5.78%
OCCNc1nc(NCc2ccccc2)c2ccccc2n1 | – | inactive: -1.23%
CCC(C)(C#CCN1CCCCC1)OCCC#N (stereo not drawn) | active: 18.4 µM | –
COC(=O)c1c(N)n(CCCN2CCOCC2)c2nc3ccccc3nc12 | inconclusive: 20.6 µM [activator, single point] | –
CCOc1ccc(NC(=O)CCC(=O)c2ccc(Br)cc2)cc1 | active: 0.651 µM | –
Cc1ccc(CS(=O)(=O)Cc2ccc(C(=O)NCC3CCCO3)o2)cc1 (stereo not drawn) | inconclusive: 32.6 µM [activator, partial curve, poor fit] | –
CCc1ccc(/C=N/NC(=O)c2cc(-c3cccc([N+](=O)[O-])c3)n[nH]2)cc1 | active: 23.1 µM | –
O=C(CSc1cccs1)NCCc1ccccc1 | inconclusive: 2.06 µM [activator, partial curve, poor fit] | –
COc1ccc2cc(C#N)c(Nc3cccc(F)c3)nc2c1 | inconclusive: 29.1 µM [activator, single point] | –

As entered above:
Under re-replication activation, OCCNc1nc(NCc2ccccc2)c2ccccc2n1 has inactive: -1.23%
Under re-replication activation, CCC(C)(C)NC(=O)C(c1ccccc1F)N(Cc1ccco1)C(=O)c1csnn1 (stereo not drawn) has inactive: 1.34%

More entries follow:

SMILES | Potency | re-replication activation
CC(=O)Nc1ccc(S(=O)(=O)NC2CC(=O)N(c3ccc(C)c(C)c3)C2)cc1 (stereo not drawn) | – | inactive: 1.21%
CCCCC1S/C(=N/N=C/c2ccc(OC)cc2)N(Cc2ccc(OC)cc2)C1=O (stereo not drawn) | inconclusive: 18.4 µM [activator, single point] | –
Cc1ccc(-n2c(Cc3cccn3C)nnc2SCC(=O)Nc2ccc3c(c2)OCO3)cc1 | inconclusive: 16.4 µM [activator, partial curve, poor fit] | –
O=C(Nc1nc(-c2ccccc2)c(C(=O)c2ccccc2)s1)c1ccc(S(=O)(=O)N2CCCC2)cc1 | – | inactive: -106%
COc1cc(CNCCCN2CCOCC2)c(Br)cc1OCC(=O)Nc1ccccc1C | inconclusive: 20.6 µM [activator, single point] | –
COc1ccc(NC(=O)CN(C)C(=O)C(C)N2C(=O)c3ccccc3C2=O)cc1 (stereo not drawn) | – | inactive: -1.65%
CC12CCC(C(=O)Nc3cccc4ccccc34)(C1Br)C2(C)C (stereo not drawn) | inconclusive: 29.1 µM [activator, partial curve, poor fit] | –
C=C1c2cccc(O)c2C(O)=C2C(=O)[C@@]3(O)C(O)=C(C(N)=O)C(=O)[C@@H](N(C)C)[C@@H]3[C@@H](O)[C@H]12 | inconclusive: 14.3 µM [activator, single point] | –
Cc1nnc(NC(=O)CSc2ncnc3scc(-c4ccccc4)c23)s1 | inconclusive: 29.1 µM [activator, single point] | –
CCOc1ccccc1Nc1nnc(SCc2ccc(C(=O)OC)o2)s1 | inconclusive: 20.6 µM [activator, single point] | –
COc1cc(-c2cc(OC)c(O)c(OC)c2)cc(OC)c1O | active: 23.1 µM | –
O=C(c1ccccc1)c1ccc(C(=O)N2CCN(c3ccc(F)cc3)CC2)o1 | – | inactive: -2.71%
COc1ccc(NC(=S)N2CCC(C(=O)c3ccc(OC)cc3)CC2)cc1 | inconclusive: 0.0073 µM [activator, full curve, poor fit] | –
Nc1ncnc(Nc2ccccc2)n1 | inactive | –
CC(C)NC(=O)c1[nH]nc2c1CCc1ccccc1-2 | inconclusive: 2.91 µM [activator, partial curve, poor fit] | –
CC(C)Cn1c2c(c(O)c(C(=O)Nc3ncccc3O)c1=O)CCCC2 | inconclusive: 18.4 µM [activator, single point] | –
Cc1ccccc1-n1nc(C(=O)c2cccs2)cc(-c2nc3ccccc3[nH]2)c1=N | inconclusive: 0.461 µM [activator, full curve, poor fit] | –
O=C(c1ccc(O)c(Cl)c1)N1CCN(S(=O)(=O)c2ccccc2)CC1 | – | inactive: 2.35%
COCCOC(=O)C1=C(C)NC2(O)c3ccccc3C(=O)C12O (stereo not drawn) | – | inconclusive: 102% [activator]
CCOc1ccc(C(=O)c2ccc(OCC)c(N)c2)cc1N | inconclusive: 20.6 µM [activator, single point] | –
Cc1cc(-c2csc(NC(=O)c3cccc(S(=O)(=O)N(C)C)c3)n2)c(C)n1-c1ccccc1 | – | inactive: -2.41%

— PubChem BioAssay AID624297 (National Center for Advancing Translational Sciences (NCATS), 2012)
